From PubChem BioAssay AID264 (DTP/NCI, 2004)
The list does not hold the whole screen: it gathers tests that were run many times, whatever their T/C, doses with no T/C, and many T/C values between a quarter and a half above the control. Other doses and runs of a compound stand elsewhere. T/C is the treated group as % of the vehicle group. Schedule codes are those of the source, read here as Q, the interval in days (D) or hours (H), X, the number of doses. Some T/C values are followed by the survivors on the day toxicity was checked, most often the fifth; without a count, all were alive then. Some doses have a count of surviving animals in place of a T/C: the source holds a T/C of zero for them, seemingly a mark for toxic or unscored doses. Survivors were counted at the toxicity check, usually on the fifth day, unless a day is given; later deaths do not show. Some entries were tested several times; their values stand side by side, smallest first.

Tested on: nude mice, LX-1 lung xenograft intrarenal, tumor weight T/C
Assay: NCI In Vivo Anticancer Drug Screen. Data for tumor model Human Lung LX-1 Xenograft (intrarenal inoculation) in NU/NU Swiss (nude) mice
Conditions: T/C endpoint: mean tumor weight change, higher T/C = larger tumour; for T/C: evaluated on day 11
Summary of the method: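 Tumor-bearing mice receive test compound or vehicle; tumor size is then measured in each group. The treated value is divided by the vehicle value to give T/C.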

[1] = dose: 2.0 mg/kg/injection, schedule: Q01DX010 (sc), vehicle: saline
[2] = dose: 200.0 mg/kg/injection, schedule: Q01DX010 (sc), vehicle: Klucel (hydroxypropylcellulose) (HPC)
[3] = dose: 400.0 mg/kg/injection, schedule: Q01DX010 (sc), vehicle: Klucel (hydroxypropylcellulose) (HPC)
[4] = dose: 800.0 mg/kg/injection, schedule: Q01DX010 (sc), vehicle: Klucel (hydroxypropylcellulose) (HPC)
[5] = dose: 400.0 mg/kg/injection, schedule: Q04DX003 (sc), vehicle: saline with Tween-80
[6] = dose: 400.0 mg/kg/injection, schedule: Q04DX003 (sc), vehicle: Klucel (hydroxypropylcellulose) (HPC)
[7] = dose: 300.0 mg/kg/injection, schedule: Q04DX003 (sc), vehicle: saline with Tween-80

In the case of `CSC(SC)=C1C(=O)NC(=O)NC1=O`, the survivor count (dose: 1200.0 mg/kg/injection, schedule: Q04DX003 (sc), vehicle: suspension in saline) is reported as 1 of 6 on day 11.
In the case of `C=C(C)[C@H]1Cc2c(ccc3c2O[C@@H]2COc4cc(OC)c(OC)cc4[C@@H]2C3=O)O1`, the T/C (dose: 8.0 mg/kg/injection, schedule: Q01DX010 (sc), vehicle: saline with Tween-80) is reported as 149 % of control and the survivor count (dose: 16.0 mg/kg/injection, schedule: Q01DX010 (sc), vehicle: saline with Tween-80) is reported as 1 of 3 on day 11.
In the case of `CCN1C=C/C(=C\C=C/c2cc[n+](CC)c3ccccc23)c2ccccc21`, the T/C (dose: 0.5 mg/kg/injection, schedule: Q01DX010 (sc), vehicle: saline) is reported as 141 % of control, the T/C (dose: 1.0 mg/kg/injection, schedule: Q01DX010 (sc), vehicle: saline) is reported as 133 % of control and the survivor count [1] is reported as 1 of 3 on day 11.
With `Cc1c2cc[n+](CCN3CCCCC3)cc2c(C)c2c1[nH]c1ccc(O)cc12` the survivor count (dose: 200.0 mg/kg/injection, schedule: Q04DX003 (sc), vehicle: suspension in saline) was 0 of 6 on day 11 and the survivor count (dose: 400.0 mg/kg/injection, schedule: Q04DX003 (sc), vehicle: suspension in saline) was 0 of 6 on day 11.
For `CCCCCCCC(=O)N/N=C(\CO)[C@]1(O)Cc2c(O)c3c(c(O)c2[C@@H](OC2CC(N)C(O)C(C)O2)C1)C(=O)c1c(OC)cccc1C3=O` (some centres undefined), the survivor count (dose: 100.0 mg/kg/injection, schedule: Q01DX010 (sc), vehicle: water) was 0 of 3 on day 11.
With `Cc1cc(N(CCOS(C)(=O)=O)CCOS(C)(=O)=O)ccc1C=Nc1ccc(-c2nc(Cc3ccccc3)sc2C)cc1` the survivor count [2] was 1 of 3 on day 11, the survivor count [3] was 0 of 3 on day 11 and the survivor count [4] was 1 of 3 on day 11.
`Nc1cc(Cl)c2[nH]cnc2n1` was tested, and the T/C (dose: 100.0 mg/kg/injection, schedule: Q04DX003 (sc), vehicle: water) was 125 % of control and the survivor count (dose: 800.0 mg/kg/injection, schedule: Q04DX003 (sc), vehicle: water) was 3 of 6 on day 11.
In the case of `CN=C(N)N/N=C(\C)c1ccc2c(c1)Cc1ccccc1-2`, the survivor count (dose: 1200.0 mg/kg/injection, schedule: Q04DX003 (sc), vehicle: saline with Tween-80) is reported as 2 of 6 on day 11.
`C[CH2][Sn]([CH2]C)([CH2]C(=O)OC)[CH2]C(=O)OC` was tested, and the survivor count (dose: 50.0 mg/kg/injection, schedule: Q04DX003 (sc), vehicle: saline with Tween-80) was 2 of 6 on day 11.
In the case of `OCC12COCN1COC2`, the T/C (dose: 300.0 mg/kg/injection, schedule: Q04DX003 (sc), vehicle: saline) is reported as 147 % of control and the T/C (dose: 600.0 mg/kg/injection, schedule: Q04DX003 (sc), vehicle: saline) is reported as 142 % of control [5 of 6 alive on day 11].
For `CCCCCC[C@H]([C@H](C)O)n1cnc2c(N)ncnc21`, the survivor count [3] was 0 of 3 on day 11 and the survivor count [4] was 0 of 3 on day 11.
With `c1cc[c]([Sn][c]2ccccc2)cc1` the T/C (dose: 5.0 mg/kg/injection, schedule: Q01DX010 (sc), vehicle: saline) was 131 % of control.
In the case of `CC(=O)N(C)c1ccc(Nc2cc(C)[nH]c3ccc4ncnc4c23)cc1`, the survivor count [5] is reported as 0 of 6 on day 11.
For `COc1ccc2nc3cc(Cl)ccc3c(NCCNCCNCCNc3c4ccc(Cl)cc4nc4ccc(OC)cc34)c2c1`, the survivor count (dose: 800.0 mg/kg/injection, schedule: Q01DX010 (sc), vehicle: saline with Tween-80) was 1 of 3 on day 11.
In the case of `CN1c2c(nc(N)[nH]c2=O)NCC1CCNc1ccc(C(=O)NC(CCC(=O)O)C(=O)O)cc1` (centres undefined), the survivor count (dose: 800.0 mg/kg/injection, schedule: Q01DX010 (sc), vehicle: saline) is reported as 0 of 3 on day 11.
With `COC(=O)C[C@](O)(CCCC(C)(C)O)C(=O)O[C@@H]1C(OC)=C[C@]23CCCN2CCc2cc4c(cc2[C@H]13)OCO4` the survivor count [1] was 1 of 3 on day 11 and the survivor count (dose: 4.0 mg/kg/injection, schedule: Q01DX010 (sc), vehicle: saline) was 0 of 3 on day 11.
For `C[N+](C)(C)c1cc2c(nn1)Nc1ccccc1S2`, the T/C (dose: 50.0 mg/kg/injection, schedule: Q01DX010 (sc), vehicle: Klucel (hydroxypropylcellulose) (HPC)) was 138 % of control, the survivor count [2] was 0 of 3 on day 11 and the survivor count [3] was 0 of 3 on day 11.
For `CSC1SCC2C(=O)N(C)C(C(C)C)C(=O)OCC(NC(=O)c3cnc4ccccc4n3)C(=O)NC(C)C(=O)N(C)C1C(=O)N(C)C(C(C)C)C(=O)OCC(NC(=O)c1cnc3ccccc3n1)C(=O)NC(C)C(=O)N2C` (centres undefined), the survivor count (dose: 480.0 micrograms/kg/injection, schedule: Q01DX010 (sc), vehicle: saline) was 0 of 3 on day 11.
`CCc1ccc(C2=C(O)C(=O)C(c3ccccc3)=C(O)C2=O)cc1` was tested, and the T/C (dose: 150.0 mg/kg/injection, schedule: Q04DX003 (sc), vehicle: Klucel (hydroxypropylcellulose) (HPC)) was 140 % of control.
In the case of `C=C[Si]12OCCN(CCO1)CCO2`, the T/C (dose: 2400.0 mg/kg/injection, schedule: Q04DX003 (sc), vehicle: Klucel (hydroxypropylcellulose) (HPC)) is reported as 136 % of control.
With `O=C1[C@H]2CCC[C@H]2[C@H]2CCC[C@@H]12` the T/C [5] was 127 % of control.
`N#C[Se-].c1ccc([Te+](c2ccccc2)c2ccccc2)cc1` was tested, and the T/C (dose: 12.5 mg/kg/injection, schedule: Q04DX003 (sc), vehicle: Klucel (hydroxypropylcellulose) (HPC)) was 126 % of control [5 of 6 alive on day 11], the survivor count (dose: 100.0 mg/kg/injection, schedule: Q04DX003 (sc), vehicle: Klucel (hydroxypropylcellulose) (HPC)) was 0 of 6 on day 11 and the survivor count (dose: 200.0 mg/kg/injection, schedule: Q04DX003 (sc), vehicle: Klucel (hydroxypropylcellulose) (HPC)) was 1 of 6 on day 11. For the same compound, the survivor count [6] was 0 of 6 on day 11.
`CSc1cc(C)[o+]c(C)c1` was tested, and the T/C (dose: 50.0 mg/kg/injection, schedule: Q04DX003 (sc), vehicle: Klucel (hydroxypropylcellulose) (HPC)) was 128 % of control and the survivor count [6] was 0 of 6 on day 11.
With `OCCOCCN1CCN(CCCN2c3ccccc3Sc3ccc(C(F)(F)F)cc32)CC1` the T/C (dose: 1.5 mg/kg/injection, schedule: Q01DX010 (sc), vehicle: saline) was 129 % of control, the T/C (dose: 12.0 mg/kg/injection, schedule: Q01DX010 (sc), vehicle: saline) was 133 % of control and the T/C (dose: 24.0 mg/kg/injection, schedule: Q01DX010 (sc), vehicle: saline) was 125 % of control. The survivor count (dose: 96.0 mg/kg/injection, schedule: Q01DX010 (sc), vehicle: saline) was 0 of 3 on day 11.
`NC(=S)c1cn(C2OC(CO)C(O)C2O)c2ncnc(N)c12` (centres undefined) was tested, and the survivor count (dose: 25.0 mg/kg/injection, schedule: Q04DX003 (sc), vehicle: suspension in saline) was 3 of 6 on day 11 and the survivor count (dose: 50.0 mg/kg/injection, schedule: Q04DX003 (sc), vehicle: suspension in saline) was 0 of 6 on day 11.
`NCCc1ccc(O)c(O)c1` was tested, and the survivor count (dose: 1600.0 mg/kg/injection, schedule: Q01DX010 (sc), vehicle: saline) was 0 of 3 on day 11.
With `O=C1C=C2C(=CCOC2O)O1` (centres undefined) the T/C (dose: 4.0 mg/kg/injection, schedule: Q04DX003 (sc), vehicle: Klucel (hydroxypropylcellulose) (HPC)) was 143 % of control.
For `Cc1cc2c(C(C)C)c(O)c(O)c(C=O)c2c(O)c1-c1c(C)cc2c(C(C)C)c(O)c(O)c(C=O)c2c1O`, the survivor count (dose: 150.0 mg/kg/injection, schedule: Q04DX003 (sc), vehicle: saline with Tween-80) was 3 of 6 on day 11 and the survivor count [7] was 2 of 6 on day 11.
With `COC1C(O)CC(OC2CC(OC3CC(O[C@@H]4C(=O)c5c(cc6cc(OC7CC(OC8CC(O)C(O)C(C)O8)C(O)C(C)O7)c(C)c(O)c6c5O)C[C@H]4[C@H](OC)C(=O)[C@@H](O)[C@@H](C)O)OC(C)C3O)OC(C)C2O)OC1C` (some centres undefined) the survivor count (dose: 6.0 mg/kg/injection, schedule: Q01DX010 (sc), vehicle: saline) was 0 of 2 on day 11 and 0 of 3 on day 11.
For `CC(=S)NC(O)C(=O)c1ccccc1` (centres undefined), the T/C [7] was 126 % of control.
With `COc1cccc2c1C(=O)c1c(O)c3c(c(O)c1C2=O)C[C@@](O)(C(=O)CO)C[C@@H]3OC1CC(N)CC(C)O1` (some centres undefined) the survivor count (dose: 3.0 mg/kg/injection, schedule: Q01DX010 (sc), vehicle: water) was 0 of 3 on day 11, the survivor count (dose: 6.0 mg/kg/injection, schedule: Q01DX010 (sc), vehicle: water) was 0 of 3 on day 11 and the survivor count (dose: 12.0 mg/kg/injection, schedule: Q01DX010 (sc), vehicle: water) was 0 of 3 on day 11.
